{"source": "PubChem BioAssay AID1508600", "about": "(Functional Genomics Laboratory (NCATS/FGL), 2020)", "note": "About 3,700 (7%) of roughly 53,000 sequences were called active.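 The calls were made as follows: active = gene knockdowns whose robust z-score for IL-1 alpha signal is at least 2 or at most -2, so actives lie on both sides; inactive = the rest.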 Some of the results follow.", "data": [{"experiment": "Components of the Cytosolic LPS Sensing Pathway: Gene Identification via Genome-wide siRNA Screen;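 also: robust z of the log signal after scaling to non-targeting control siRNA wells of the plate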", "settings": "RAW264.7 macrophages, IL-1a HTRF, actives lie on both sides, screened at 100 nM (by protocol), cells primed 5 h with Pam3CSK4 first", "outline": "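Three distinct siRNAs per gene were tested singly at 100 nM in RAW264.7 macrophages. Following Pam3CSK4 priming and 24 hour LipidA transfection, IL-1a secretion was read by HTRF.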", "values": [{"sequence": "GAUGGUCAUCCUUCCUUUATT against Olfr341", "z-score": "inactive: -0.737"}, {"sequence": "GGUUGGGCAAACCUGUCAATT against Olfr1121", "z-score": "inactive: 0.62"}, {"sequence": "CGAUCUCAGAGGAUAAGUUTT against Nxf3", "z-score": "inactive: -0.48"}, {"sequence": "CGAGGUGGCUACAGAUCAATT against Tspyl2", "z-score": "inactive: 0.512"}, {"sequence": "GCCCACAUCAGCUAUCGUUTT against Atf2", "z-score": "inactive: -0.787"}, {"sequence": "GGCCAGAUUAACACUUACUTT against Eif3h", "z-score": "inactive: 0.798"}, {"sequence": "GGACCACUCGCUUUUGGGUTT against Irf2bpl", "z-score": "inactive: 0.938"}, {"sequence": "CGUUACACGUACUUCAAGGTT against Wnt3a", "z-score": "inactive: 0.252"}, {"sequence": "CGGUGUGAUGCGGAUUUUUTT against Cacna2d2", "z-score": "inactive: -0.112"}, {"sequence": "GGUUGUGACUACACUAUGGTT against Zfp456", "z-score": "inactive: -1.7"}, {"sequence": "CCUGUGAAUACUUUCACUCTT against Bok", "z-score": "inactive: 0.115"}, {"sequence": "CCGUGGUAAUGUGAACUAUTT against Cln6", "z-score": "inactive: 0.0977"}, {"sequence": "CCUGUUGAAGUUUCUGGAATT against Tmbim4", "z-score": "inactive: 0.744"}, {"sequence": "GCCAUUUGUCCACAAAAUGTT against Ces2g", "z-score": "active: -2.06"}, {"sequence": "GACUAUGUGGUCUACUCGUTT against Drd4", "z-score": "active: 2.86"}, {"sequence": "GCACCUGUGGAGUUCUCUATT against Trp73", "z-score": "inactive: 0.742"}, {"sequence": "CCUUCUUUUACCGUCUCAATT against Gpr31b", "z-score": "inactive: -0.69"}, {"sequence": "GGCUGUGCAAGCAAAACCUTT against Mad1l1", "z-score": "inactive: -1.43"}, {"sequence": "GGUGCAGAACAAUUCGGUUTT against Tnfsf4", "z-score": "inactive: 0.612"}, {"sequence": "GCCAGCAUAAAUAUACUUUTT against Apol10a", "z-score": "inactive: -0.0597"}, {"sequence": "CCAACGAACCUUAUUUCUUTT against Lman2", "z-score": "inactive: 0.318"}, {"sequence": "GCUAUUCUUUUUCUGCUUUTT against Olfr893", "z-score": "inactive: -0.118"}, {"sequence": "GCUGUGUAUAAACAUCCUATT against Pigp", "z-score": "inactive: 1.76"}, {"sequence": "GGAGCAGUGGGAAAUUCCATT against Ice2", "z-score": "inactive: -0.0391"}, {"sequence": "GGCCUUCUUUGAUGUGAAGTT against Sbf1", "z-score": "inactive: 0.108"}, {"sequence": "CAACACCAUUCCUAAAUCATT against Cabs1", "z-score": "inactive: -1.33"}, {"sequence": "GCUUAGGGUGUUGAAAGGCTT against AI854703", "z-score": "inactive: -0.393"}, {"sequence": "GGAGGAAGCUGUCAAGGAUTT against Ano1", "z-score": "inactive: -0.585"}, {"sequence": "GGACAUGGAGACUCUGAAGTT against Ptov1", "z-score": "inactive: 1.46"}, {"sequence": "GCCUUACUUCGGAGUGCUATT against Olfr606", "z-score": "active: -4.78"}, {"sequence": "CCAUCCAUCUAUCUUCACCTT against Nanos2", "z-score": "inactive: -0.964"}, {"sequence": "GGGACAAGGCAGAAAUUUUTT against Tcf15", "z-score": "inactive: 0.968"}, {"sequence": "GGAAAGUUGGACCUUCUGATT against Adamts6", "z-score": "active: 2.35"}, {"sequence": "CGCAGAAAGUUGUUAACCCTT against Svop", "z-score": "inactive: 0.0514"}, {"sequence": "GGGCUCACUCCAAAUCUCUTT against Macir", "z-score": "inactive: -0.0514"}, {"sequence": "GCCCAUAUCUUCUUCACUGTT against Stxbp2", "z-score": "inactive: -0.169"}, {"sequence": "GGAUGAGUUUUUCUAUAGCTT against Cyp4f39", "z-score": "inactive: -0.138"}, {"sequence": "GGAUGUGGUUCGAGUAUGGTT against Pou5f1", "z-score": "inactive: 1.79"}, {"sequence": "GACAAAGAGUCCCUGAACCTT against Emp3", "z-score": "inactive: 0.514"}, {"sequence": "GGAGAAUAAAACUUCCAGATT against Urod", "z-score": "inactive: -0.436"}, {"sequence": "GCGGAUUCAAAACCUUAGUTT against Drp2", "z-score": "inactive: 0.299"}, {"sequence": "GGGCCUCCUGUAAACAUCCTT against D630039A03Rik", "z-score": "inactive: 0.884"}, {"sequence": "GAAAAUAGAUAAAAGGACCTT against Defb6", "z-score": "inactive: 1.11"}, {"sequence": "GCAACUUUGUAGCUCCUUCTT against Srebf2", "z-score": "inactive: 0.118"}, {"sequence": "CCUCAAUUAUACCAAGAUUTT against Mapre3", "z-score": "inactive: -1.28"}, {"sequence": "GACAAUGCGUGCAACGAUATT against Grcc10", "z-score": "inactive: 1.13"}, {"sequence": "CCGUACCGAAUCCUUUAUCTT against Tbc1d9", "z-score": "inactive: 0.564"}, {"sequence": "CGAUUUUCUACAGAAAUACTT against Smpd3", "z-score": "inactive: 1.93"}, {"sequence": "GCAUAUCGUUUUAUGGAUGTT against Olfr1043", "z-score": "inactive: 0.138"}, {"sequence": "CCUAAUUUCCCAGCACUUUTT against Acsf2", "z-score": "inactive: -0.187"}, {"sequence": "CCAAAAAUUGUGGCUUUUGTT against Alas2", "z-score": "inactive: 1.89"}, {"sequence": "GGCCUGACUUUUUGUCUUATT against Klhl15", "z-score": "inactive: 1.09"}, {"sequence": "CCAUUCCUACAGCAUGCGUTT against Slc27a1", "z-score": "inactive: 0.523"}, {"sequence": "GGGACUUUGUAAACAGUUUTT against Eci2", "z-score": "inactive: 1.61"}, {"sequence": "CCGCUAAGUUGGUAGACUCTT against Grp", "z-score": "inactive: 0.245"}, {"sequence": "GGCCCUGUGCACUAAAGUGTT against Bax", "z-score": "inactive: 0.28"}, {"sequence": "GCAGUUAUCCGUAUUUAAATT against Ctnnbl1", "z-score": "inactive: 1.18"}, {"sequence": "GGGCAAAUGUUCUCAAAAATT against Dlst", "z-score": "inactive: 0.814"}, {"sequence": "GGGUGUUUACUAACUCUGGTT against Hdac3", "z-score": "inactive: -1.94"}, {"sequence": "GGGUAUUCUGUGUGUUACUTT against Hsd3b1", "z-score": "active: 2.06"}, {"sequence": "GCAUAUCGUUCAAGUUUACTT against Sorcs1", "z-score": "inactive: 1.85"}, {"sequence": "GGUUCACAGUCCAAGCUUCTT against Sytl3", "z-score": "inactive: 0.677"}, {"sequence": "GGAUACUACAUGAAUCUUATT against Pip5k1a", "z-score": "inactive: -0.244"}, {"sequence": "GAGUUCCAGUUUAUCCCUUTT against Klra1", "z-score": "active: -2.06"}, {"sequence": "GUCUUGCGUGACAACAUCCTT against H4c14", "z-score": "inactive: 0.718"}, {"sequence": "GGAUAUGGUUAAAGCCAAATT against Zg16", "z-score": "inactive: -0.172"}, {"sequence": "CGAGCCACACCAAUAGAAGTT against Csnk1g3", "z-score": "inactive: -0.42"}, {"sequence": "GGCAACUGAAUGUUUCCUATT against Nudt19", "z-score": "inactive: -1.41"}, {"sequence": "CGGGAAAGCCAAUACCAUGTT against Whamm", "z-score": "inactive: -0.632"}]}]}
